For the assay, the target named is cyclin E (mouse, endogenous) (mouse). In words: immunoprecipitates from cell lysates blotted with anti-ARF-p19; Sf9 baculovirus reconstruction also gave no convincing evidence.

From US6407062 come the findings set out here.

Results are given in words; binding and its absence hold for the method and conditions named.

B1: ARF-p19 (mouse, full-length 169 amino acid protein) (protein)
chain: MGRRFLVTVRIQRAGRPLQERVFLVKFVRSRRPRTASCALAFVNMLLRLERILRRGPHRNPGPGDDDGQRSRSSSSAQLRCRFELRGPHYLLPPGARRSAGRLPGHAGGAARVRGSAGCARCLGSPAARLGPRAGTSRHRAIFAFRWVLFVFRWVVFVYRWERRPDRRA
With B1, the binding entry was “no binding”.
